# Experimental data as given in PubChem BioAssay AID2685 (National Center for Advancing Translational Sciences (NCATS), 2010).
# Among all 320,000 compounds or so, about 2,100 (0.66%) were called active. The shares of active, inactive and inconclusive entries below differ from those in the screen. Calls follow the shape of the dose curve; as a rule, active = well fitted inhibition curve with a large enough effect in the signal ratio, with a control signal flat (not every such curve was filed as active); inconclusive = small, poorly fitted or top-dose-only effect, or effect the other way, or a change in a side signal; inactive = flat fitted curve, though single readings scatter; the % refers to the signal ratio. A potency beside an inconclusive call is a rough fit, not a confirmed value.
# Experiment: qHTS Assay for Lipid Storage Modulators in Drosophila S3 Cells
# Conditions: BODIPY lipid droplet fluorescence, 18-24 h, cells fed with added oleic acid; lipid storage change, negative = inhibition: at 46.1 µM (top of the series) unless noted
# Procedure, shortened: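 Drosophila S3 cells got compounds at several concentrations plus oleic acid (400 uM solution). Laser-scanning cytometry with 488 nm excitation read lipid droplets at 500-530 nm and cells at 575-640 nm. Percent activity was relative to 20 uM Triacsin C.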
# % is scaled to controls: 0 for no effect and ±100 for the full control effect; potency is read from the fitted curve at half-maximal effect.
SMILES,Potency,"lipid storage change, negative = inhibition"
COc1ccc(C(=O)NNC(=O)CSc2nnc(C(C)C)n2C)cc1,"inconclusive: 0.0046 µM [activator, full curve]",–
COc1cccc(OC)c1C(=O)NNS(=O)(=O)c1ccc2ccccc2c1,"inconclusive: 29.1 µM [falling, single point]",–
CCOc1ccccc1N1CN(Cc2ccccc2)CNC1=S,–,inconclusive: -23%
CCOc1ccc(S(=O)(=O)N2CCC(C(=O)NCc3cccnc3)CC2)cc1,–,inconclusive: 3.71%
COC(=O)C(O)(CC(=O)Nc1ccc(OC(F)(F)F)cc1)C(F)(F)F (stereo not given),"inconclusive: 0.146 µM [falling, full curve, poor fit]",–
CC(C)C(C(=O)NC1CCCC1)N(Cc1ccco1)C(=O)CNS(=O)(=O)c1ccccc1 (stereo not given),–,inconclusive: 6.72%
CCOc1ccc(C(=O)NCC(=O)Nc2ccncc2)cc1OCC,"inconclusive: 0.146 µM [activator, full curve, poor fit]",–
Cc1cc(F)ccc1NC(=O)C1CCCO1 (stereo not given),–,inconclusive: -37.4% [at 0.369 µM]
O=C(Nc1ccccc1)c1cccc(N2C(=O)C3C4C=CC(C4)C3C2=O)c1 (stereo not given),–,inconclusive: -6.62%
CC1C(=O)N(Cc2ccc(F)cc2)c2ccccc2N1C(=O)c1c(F)cccc1F (stereo not given),–,inconclusive: 3.49%
COC(=O)[C@@H]1C[C@@]2(O)[C@@H](O)[C@@H](O)[C@@H](O)C[C@H]2N1CC1CCCCC1,–,inconclusive: 15.3%
COCCN(Cc1cc2cc(C)ccc2nc1Cl)C(=O)Nc1ccccc1C,–,inconclusive: 36.6%
O=C(CN1C(=O)NC2(CCCCCC2)C1=O)N1CCN(c2ccc(F)cc2)CC1,–,inconclusive: 34.5%
O=C(/C=C/c1ccc(F)cc1)N1CCN(c2ccccn2)CC1,"inconclusive: 0.326 µM [falling, partial curve, poor fit]",–
CC(NC(=O)NC1CCCCC1)C(c1cccs1)N1CCN(C)CC1 (stereo not given),–,inconclusive: -13.3%
COC(=O)/C=C1\N/C(=N\c2nc(C)cc(C)n2)N(c2ccc(C)cc2)C1=O,–,inconclusive: 4.09%
COc1cccc(CNC(=O)CCC2CCCN(C(=O)c3cc(C4CC4)[nH]n3)C2)c1 (stereo not given),–,inconclusive: -69.5%
CC1=NNC(=O)C1CCC(=O)N/N=C/c1ccco1 (stereo not given),"inconclusive: 6.51 µM [cytotoxic, single point]",–
COc1ccc(CC(=O)Oc2ccccc2Cl)cc1S(=O)(=O)N1CCOCC1,–,inconclusive
CC1=C(C(=O)OCCOc2ccccc2)C(c2ccc(C)o2)C2=C(CC(C)(C)CC2=O)N1 (stereo not given),"inconclusive: 7.31 µM [falling, partial curve]",–
CC(=O)c1ccc(NC(=S)N2c3ccccc3CC2C)cc1 (stereo not given),–,inconclusive: 12.6%
Cc1nc(Cl)sc1C(=O)NC(C)c1ccc(Cl)cc1 (stereo not given),"inconclusive: 25.9 µM [falling, partial curve, poor fit]",–
COc1ccc2c(c1)C(=O)C(=O)N2CC1COc2ccccc2O1 (stereo not given),–,inconclusive: -26.5%
CC(=O)CCc1ccc(OCC(O)CNCCOc2ccc(C)cc2)cc1 (stereo not given),"inconclusive: 25.9 µM [activator, single point]",–
Cc1cccc(OCC(=O)N2CCCc3ccccc32)c1,–,inconclusive: 21%

SMILES,Potency,"lipid storage change, negative = inhibition"
CN(C)S(=O)(=O)c1ccc(NC(=O)CN2CCN(c3ccccn3)CC2)cc1,–,inconclusive: -67.5%
O=c1c2ccccc2c(=O)n(Cc2ccccc2)n1Cc1ccccc1,–,inconclusive: -8.46%
CCn1c(SCC(=O)Nc2nc(C)cs2)nnc1-c1ccncc1,"inconclusive: 4.11 µM [activator, partial curve, poor fit]",–
Cc1cc(=O)oc2cc(OCC(=O)Nc3ccccc3C(=O)O)ccc12,–,inconclusive: 18.6%
COC(=O)c1cc2occc2n1Cc1c(F)cccc1Cl,–,inconclusive: -186%
CC(=O)Nc1ccccc1OCC(=O)NCCC1=CCCCC1,–,inconclusive: 51.3%
Cc1ccc(NC2SC(=O)N(Cc3cccc(C(=O)O)c3)C2=O)cc1 (stereo not given),"inconclusive: 23.1 µM [falling, single point]",–
CCCn1c(SCC(=O)NC2CCCCC2)nnc1-c1ccco1,"inconclusive: 25.9 µM [falling, partial curve, poor fit]",–
O=c1c2c(nc3cc(-c4ccc(Cl)cc4)[nH]n13)CCS2,–,inconclusive: -4.72%
Cc1ccc(-c2c3c(=O)n(C)c(=O)n(C)c3cn2-n2cnnc2)cc1,–,inconclusive: -22.9%
NNC(=O)C1CC(O)CN1S(=O)(=O)c1ccc2ccccc2c1 (stereo not given),–,inconclusive: 3.84%
CCOc1ccc(OCCC(=O)OCC(=O)N2CCN(c3ccc(OC)cc3)CC2)cc1,–,inconclusive
CCOC(=O)Cn1nc(C)c2ccccc2c1=O,–,inconclusive: 53.6%
Cc1cc(C(=O)CSc2nnc(Nc3ccccc3F)s2)c(C)n1CC1CCCO1 (stereo not given),"inconclusive: 23.1 µM [falling, single point]",–
O=c1cc(CNc2ccc(Br)cc2)nc2sccn12,–,inconclusive: -7.41%
CC(=O)CSc1nc(N(C)C)nc(N(C)C)n1,"inconclusive: 0.891 µM [falling, full curve, poor fit]",–
CCCC[n+]1ccn(C2=C([O-])c3ccccc3C(=O)/C2=N\S(=O)(=O)c2ccccc2)c1,–,inconclusive: -23.9%
O=C(/C=C/c1cccc([N+](=O)[O-])c1)N1CCOCC1,–,inactive
COC(=O)c1c(NC(=O)CCCC(=O)O)sc2c1CCCCC2,"inconclusive: 11.6 µM [activator, partial curve]",–
Cn1c(=O)c2c(nc(SCCN3CCOCC3)n2Cc2ccc(F)cc2)n(C)c1=O,–,inconclusive: 23.4%
Cn1c(SCc2cc(=O)[nH]c3ccccc23)nnc1-c1ccco1,–,inconclusive: 29.4%
CC1CCN(c2ccc([N+](=O)[O-])cc2C(=O)N2CCOCC2)CC1,"inconclusive: 32.6 µM [falling, single point]",–
Cc1cccc(NC(=O)/C(=C\c2ccc([N+](=O)[O-])o2)NC(=O)c2ccc(Cl)cc2)c1,–,inconclusive: -18.6%
O=C(NC(=S)NCC1CCCO1)c1ccccc1[N+](=O)[O-] (stereo not given),–,inconclusive: -1.21%
O=C(CCc1ccccc1)NC(NC(=S)Nc1ccc(Br)cc1)C(Cl)(Cl)Cl (stereo not given),–,inactive

SMILES,Potency,"lipid storage change, negative = inhibition"
Cc1onc(-c2c(F)cccc2Cl)c1C(=O)OCC(=O)c1c[nH]c2ccccc12,–,inconclusive: -11.4%
CC(C)N1CC(C(=O)Nc2cc(Cl)cc(Cl)c2)CC1=O (stereo not given),–,inconclusive: -33.8%
Cc1ccnc(SCc2ccc([N+](=O)[O-])cc2)n1,–,inconclusive: 1.3%
Cc1ccc(C(=O)N2CCCC(Nc3ccc(C(C)C)cc3)C2)cn1 (stereo not given),"inconclusive: 9.2 µM [activator, partial curve]",–
Cc1ccccc1OCC(=O)N/N=C/c1ccc([N+](=O)[O-])o1,"inconclusive: 23.1 µM [falling, single point]",–
CCCc1nc2ccccc2c(=O)n1/N=C/c1ccccc1O,–,inconclusive: 14.7%
COc1cccc(CCC(=O)O)c1OC,"inconclusive: 0.731 µM [falling, full curve]",–
COc1ccc(Nc2nnc(SCC3CCCCO3)s2)cc1 (stereo not given),–,inconclusive: 25%
CC[C@@]12C(=O)N(c3cccc(Br)c3)C(=O)N1[C@H](c1ccc(OC)cc1)[C@@H]1C(=O)N(C(C)(C)C)C(=O)[C@@H]12,–,inconclusive: 19.5%
COc1ccc(S(=O)(=O)NCC(=O)Nc2ccc3c(c2)OCCO3)cc1OC,"inconclusive: 29.1 µM [falling, single point]",–
CC(=O)c1c(C)[nH]c(C(=O)CSc2nnc(-c3ccco3)n2Cc2ccccc2)c1C,"inconclusive: 1.3 µM [activator, full curve, poor fit]",–
CS(=O)(=O)N1CCN(c2ccc([N+](=O)[O-])c(N3CCOCC3)c2)CC1,–,inconclusive: 154%
Cc1ccc2cc(CN(CCN3CCCC3)C(=O)Nc3ccc(F)cc3)c(=O)[nH]c2c1C,–,inconclusive: -10.8%
N#Cc1nc(-c2ccco2)oc1N1CCc2ccccc2C1,–,inconclusive: 121%
COc1ccc(OC(C)C(=O)N(C)Cc2nc(-c3ccc(OC)cc3)no2)cc1 (stereo not given),"inconclusive: 11.6 µM [activator, partial curve]",–
CCOC(=O)CNC(=O)CSc1nc(Cc2ccccc2)nc2ccccc12,active: 7.31 µM,–
Cc1ncc([N+](=O)[O-])n1CCOC(=O)c1cc(Cl)cc(Cl)c1N,"inconclusive: 0.731 µM [activator, full curve, poor fit]",–
COc1ccc(CCNC(=O)CC2(CC3=NS(=O)(=O)c4ccccc4N3)CCCC2)cc1OC,–,inconclusive: -111%
CN1CCc2c(sc3c2C(=O)NC(/C=C\c2ccccc2)N3)C1 (stereo not given),–,inconclusive: 10.8%
N#CCc1ccc(NC(=O)c2ccc(S(=O)(=O)N3CCCC3)cc2)cc1,–,inconclusive: -16.1%
CCC1(C)Cc2nc3[nH]c(=S)n(-c4ccc(C)cc4)c(=O)c3cc2CO1 (stereo not given),"inconclusive: 0.0651 µM [falling, full curve, poor fit]",–
O=C(CCl)N1c2ccccc2SCC1c1ccccc1 (stereo not given),active: 1.03 µM,–
CCCN(CCC)CCCNC(=O)c1ccc2c(Cl)c3c(nc2c1)CCC3,–,inconclusive: 1.82%
Cc1ccc(-n2c(Cc3ccccc3)n[nH]c2=S)c(C)c1,–,inconclusive: -4.12%
Cc1cc(C)c(NC(=O)CNC(=O)COC(=O)/C=C/c2cccs2)c(C)c1,"inconclusive: 2.91 µM [activator, partial curve, poor fit]",–

# Taken from above.
# For Potency, CCOC(=O)CNC(=O)CSc1nc(Cc2ccccc2)nc2ccccc12 has active: 7.31 µM
# For lipid storage change, negative = inhibition, Cc1ccnc(SCc2ccc([N+](=O)[O-])cc2)n1 has inconclusive: 1.3%
# For Potency, COc1ccc(OC(C)C(=O)N(C)Cc2nc(-c3ccc(OC)cc3)no2)cc1 (stereo not given) has inconclusive: 11.6 µM [activator, partial curve]
